This is an account of results in patent publication US20230374534A1 (INDUSTRY ACADEMIC COOPERATION FOUNDATION GYEONGSANG …, published 2023).

The data set concerns the molecule itself. Put plainly: non-reducing SDS-PAGE and western blot of recombinant His-CBF1; self-association through disulfide bonds, dissociated by DTT (FIG. 2A). On the procedure: FIGS. 2A and 2B show the western blot analysis of purified His-CBF1 incubated with 1 mM DTT or H₂O₂ (FIG. 2A) and with a Trx system containing 0.5 mM NADPH, 1 μM Trx reductase, and 5 μM Trx-h2 or Trx-h2(C/S) (FIG. 2B) at 25° C. for 30 min. Structural changes in CBF1 were analyzed by SDS-PAGE on non-reducing gels. FIGS. 2C and 2D show the western blot analysis of Trx-h2-mediated structural dissociation of CBF1 in CBF1-Myc^OE/Col-0 (FIG. 2C) and CBF1-Myc^OE/trx-h2 (FIG. 2D) plants exposed to cold. […]
Redox-dependent structural modification of CBF1 was examined in vitro using purified recombinant His-CBF1 or His-CBF1(C/S) protein incubated with H₂O₂ (oxidizing agent) or DTT (reducing agent) at 25° C. for 15 min. The effect of the reducing power of Trx-h2 on His-CBF1 was analyzed at 25° C. for 30 min using a Trx system containing NADPH, Trx reductase, and either Trx-h2 or Trx-h2(C/S). Proteins were separated by SDS-PAGE on reducing and non-reducing gels, and protein structures were detected by western blotting with anti-His (Abcam, Cambridge, MA, USA) and anti-Trx-h2 antibodies. The structural switching of CBF1 was also analyzed in vivo using 2-week-old CBF1-Myc^OE/Col-0 plants.

B1: His-CBF1 (histidine-tagged C-repeat-binding transcription factor 1), recombinant (other)
chain: MNSFSAFSEMFGSDYEPQGGDYCPTLATSCPKKPAGRKKFRETRHPIYRGVRQRNSGKWVSEVREPNKKTRIWLGTFQTAEMAARAHDVAALALRGRSACLNFADSAWRLRIPESTCAKDIQKAAAEAALAFQDETCDTTTTNHGLDMEETMVEAIYTPEQSEGAFYMDEETMFGMPTLLDNMAEGMLLPPPSVQWNHNYDGEGDGDVSLWSY
notes: Transcription factor; It forms disulfide-linked oligomers of several sizes on non-reducing gels; also called His-CBFs; not shown: His tag from the pET28a vector
With B1, the binding result was “binds”.
